Test results taken from patent EP4159870A1, “SYSTEM FOR THE DETECTION OF INHIBITORS IN MILK” (Analytik in Milch Produktions- und Vertriebs-GmbH, priority 2021, dated 2023).
At least one compound was matched to its structure with a doubt left.

Assays:
[1] = system: G. stearothermophilus C953 (DSM 1550); assay: BRT microbial test system with additives in the growth medium, G. stearothermophilus indicator strain; format: cell-based; conditions: additive in growth medium: 50 µg/l CIP, 75 µg/l MOX, 100 µg/l LEV
Procedure: (§1) The medium was prepared with one additive each. The evaluation of an increase in sensitivity and incubation time until complete discoloration of the negative control was performed by comparison with corresponding control medium, spore suspensions from the same batches and an equivalent number of spores.
(§2) Microbial test systems were prepared according to methods L 01.01-5 (January 2012) and L 01.00-11 (December 2002) ASU. 6.85 g BRT basis medium comprising about 1.5 g/l meat extract, about 3.0 g/l yeast extract, about 4.0 g/l casein peptone, about 6.0 g/l meat peptone, about 1.0 g/l D(+)-glucose, about 10 ml/l trimethoprim solution, and about 10 to […] dissolved in 250 ml distilled water and autoclaved.
(§3) The medium was tempered to 65 °C. 6.25 ml of sterile-filtered brilliant black solution (4 mg/ml, in dist. aqua) and medium additives and the spore suspension was added. The volume of spore suspension to be used was calculated on the basis of the desired spore number [cfu/ml] and the determined spore number of the spore suspension. The spore suspension was adjusted to a volume corresponding to 0.4 to 6 % v/v of the growth medium by dilution in Ringer's solution or by centrifugation (6,000 × g, RT, 10 min). […]

[2] = system: A. pallidus MHI 3391; assay: BRT microbial test system with additives in the growth medium, A. pallidus indicator strain; format: cell-based; conditions: MOX concentration in growth medium 125 µg/l and higher
Procedure: as §1, §2, §3

Structure (SMILES) | effect of addition to growth medium on detection sensitivity [1] | Discoloration of the negative control detected after [2]
C[C@H]1COc2c(N3CCN(C)CC3)c(F)cc3c(=O)c(C(=O)O)cn1c23 [LEV, levofloxacin] | not associated with an increased sensitivity | –
COc1c(N2C[C@@H]3CCCN[C@@H]3C2)c(F)cc2c(=O)c(C(=O)O)cn(C3CC3)c12 [MOX, moxifloxacin] | not associated with an increased sensitivity | more than eight hours
